Data taken from PubChem BioAssay AID1259362, deposited by NCATS (2018).

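The assay measures how well adherent Panc1 cells survive two days of compound treatment, using light output as the survival signal. Each compound was tested as a dilution series from about 0.00039 to 92 µM, mostly up to 46.1 µM. The value is the fitted concentration giving half-maximal loss of viability (AC50, nM); lower means more potent cell killing. Calls come from a score set by curve class and fitted AC50: scores 40–100 are active, 1–39 inconclusive, and 0 inactive.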

Values are in nM. Every entry below has the call inconclusive. These entries are mostly ones the record files as inconclusive; other results of the assay are not listed here. Potencies fitted to partial, single-point or poorly fitting curves are rough. Some entries filed as inconclusive have a full curve. The first word of each remark tells which way the curve ran; it can be opposite to the aim of the assay. Activity scores are not listed here.

| # | Compound | fitted potency (nM) | remark |
|---|---|---|---|
| 1 | `O=C(O)C(=O)c1cn(Cc2ccccc2)c2ccc(-c3ccc(OC(F)(F)F)cc3)cc12` | 742.7 | cytotoxic, partial curve, poor fit |
| 2 | `O=C(O)c1nn(Cc2ccc(Cl)cc2Cl)c2ccccc12` | 23484 | cytotoxic, partial curve, poor fit |
| 3 | `CC(C)[C@]12O[C@H]1[C@@H]1O[C@]13[C@]1(O[C@H]1C[C@H]1C4=C(CC[C@@]13C)C(=O)OC4)[C@@H]2O` | 14.8 | cytotoxic, full curve |
| 4 | `CC1CC(C)C(=O)C(C(O)CC2CC(=O)NC(=O)C2)C1` (stereo unspecified) | 60.5 | cytotoxic, full curve |
| 5 | `Cc1c(C(=O)Nc2cccc(C(F)(F)F)c2)cc(-c2ccccc2)n1CCCN1CCOCC1` | 16626 | cytotoxic, partial curve |
| 6 | `Cn1cc(C2=C(c3cn(C4CCN(Cc5ccccn5)CC4)c4ccccc34)C(=O)NC2=O)c2ccccc21` | 2348 | cytotoxic, partial curve, poor fit |
| 7 | `CCCCC/C=C\C/C=C\C/C=C\C/C=C\CCCC(=O)NC1CC1` | 4.7 | rising, full curve, poor fit |
| 8 | `Cc1cc(SCc2sc(-c3ccc(C(F)(F)F)c(F)c3)nc2C)ccc1OCC(=O)O` | 5899 | cytotoxic, single point |
| 9 | `CNC(=O)N1N=C(c2ccc(N)cc2)c2cc3c(cc2CC1C)OCO3` (stereo unspecified) | 16626 | cytotoxic, partial curve, poor fit |
| 10 | `COc1ccc(C(=O)c2c(C)n(CCN3CCOCC3)c3ccccc23)cc1` | 37221 | cytotoxic, single point |
| 11 | `CNC(=O)c1ccc(N2C(=S)N(c3ccc(C#N)c(C(F)(F)F)c3)C(=O)C23CCC3)cc1F` | 295.7 | cytotoxic, full curve, poor fit |

For reference, 2 entries once more:

{"compound": "Cn1cc(C2=C(c3cn(C4CCN(Cc5ccccn5)CC4)c4ccccc34)C(=O)NC2=O)c2ccccc21", "fitted potency (nM)": "2348", "remark": "cytotoxic, partial curve, poor fit"}
{"compound": "CNC(=O)N1N=C(c2ccc(N)cc2)c2cc3c(cc2CC1C)OCO3", "stereo": "stereo unspecified", "fitted potency (nM)": "16626", "remark": "cytotoxic, partial curve, poor fit"}